Experimental data as given in article PMC8842277, “Highly Antiproliferative Latonduine and Indolo[2,3-c]quinoline Derivatives: Complex Formation with Copper(II) Markedly Changes the Kinase Inhibitory Profile” (Journal of Medicinal Chemistry, 2022).

Test system: calf thymus DNA (ct-DNA)
Assay: Ethidium bromide displacement and fluorescence lifetime
Assay type: binding
Conditions: ct-DNA–EtBr–complex 1:5:12.5 ratio, pH 7.40
Procedure: The interaction of 4 and 8 and HL^4 and HL^8 with ct-DNA was investigated by spectrofluorometry in ethidium bromide (EtBr) displacement studies. EtBr is a fluorescent probe, and its fluorescence intensity increases upon intercalation into the DNA helix. […] Decrease in the fluorescence may indicate (i) the displacement of EtBr or (ii) (partial) quenching of the fluorescence of the bound probe. In order to separate these processes, fluorescence lifetime measurements were carried out. […] In addition, they provided evidence that the two copper(II) complexes bind to ct-DNA. However, complex 8 replaced EtBr more effectively than 4. To get further insight into the mechanism of action of lead compounds, their antiproliferative activity in wild-type cells HCT116 and HCT116 cell subline with knocked out p53 gene was investigated.
Fluorescence measurements were carried out on a Fluoromax (Horiba Jobin Yvon) fluorometer. A stock solution of calf thymus DNA (ct-DNA, Sigma Aldrich) was prepared as described in our former work.[105] Samples contained 10 μM ct-DNA expressed in base pairs, 5 μM ethidium bromide (EtBr, Sigma Aldrich), and different concentrations of complexes 4 or 8 or proligands HL^4 or HL^8 in 10 mM HEPES buffer (pH = 7.40). The excitation wavelengths were 510 or 455 nm, and the fluorescence emission was measured in the range 530–750 nm. Corrections for self-absorbance and inner filter effect were done according to our former work.[106] Fluorescence lifetime was measured on the same fluorometer equipped with a DeltaHub time-correlated single photon counting (TCSPC) controller using a NanoLED light source N-455 (Horiba Jobin Yvon). Details on the instrument parameters are found in Table S3. The fluorescence intensity decay over time is described by a sum of exponentials, [drawing 3] 3 where αi and τi are the contribution to the total intensity (I) at time point 0 and lifetime of component i, respectively.[107] […] Fractional intensities were calculated as described in our former work.[105]
Figure S 8. Fluorescence intensity values of the ct -DNA–EtBr system in the presence of increasing amount of HL4 (◊), HL8 (∆), 4 (♦) and 8 (▲), orange dashed line denotes the emission signal of free EtBr. […]
Figure S9. Deconvoluted fluorescence intensities and lifetime values (τ) of the ct-DNA–EtBr– indicated complex systems at 1:5:12.5 ratio based on steady -state and fluorescence lifetime measurements. τ3 can be attributed to the intercalated EtBr; in the presence of 8 it was decreased […]
most probably EtBr bound electrostatically at the phosphate backbone of DNA, its relatively large uncertainty is due to the sma ll quantity of this form at these conditions. τ 1 was kept constant in the calculations. {cDNA = 10.0 µM; λEX = 455 nm, λEM = 610 nm; T = 298 K; 10 mM […]

SMILES	fluorescence lifetime t2 (EtBr bound electrostatically) [ns]	fluorescence lifetime t3 (intercalated EtBr) [ns]
CC(=NNC1=NCc2ccccc2-c2c1[nH]c1ccc(Br)cc21)c1ccc(CN2CCOCC2)cn1.[Cl][Cu][Cl] [compound 4, CuCl2(HL^4)·0.5H2O]	5.8 ± 0.6	21.21 ± 0.04
CC(=NNc1nc2ccccc2c2c1[nH]c1ccc(Br)cc12)c1ccc(CN2CCOCC2)cn1.[Cl][Cu][Cl] [compound 8, CuCl2(HL^8)·H2O]	6.6 ± 0.3	18.83 ± 0.06
